The chains behind the UniProt entries cited, without tags or fusion partners.
UniProt Q9CYN2: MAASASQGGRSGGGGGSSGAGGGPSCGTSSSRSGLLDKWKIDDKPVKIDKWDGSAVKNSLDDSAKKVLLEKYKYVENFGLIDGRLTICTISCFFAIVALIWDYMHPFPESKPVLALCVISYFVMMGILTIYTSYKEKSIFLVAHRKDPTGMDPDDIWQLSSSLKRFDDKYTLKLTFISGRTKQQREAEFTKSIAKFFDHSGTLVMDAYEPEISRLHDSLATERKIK

According to publication PMC6063487:

T1: Neuronatin (NNAT), endogenous in MIN6 cells (mouse (endogenous in MIN6)) (UniProt Q61979)
T1 sequence: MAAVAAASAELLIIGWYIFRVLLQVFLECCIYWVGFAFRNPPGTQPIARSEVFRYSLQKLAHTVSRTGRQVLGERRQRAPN

B1: Signal peptidase complex subunit 1 (SPCS1), endogenous in MIN6 cells (protein, UniProt Q9D958 1-161)
chain: MARGGARGCPCPSETSASGATAEVKRSAGRPCSRYRPPQTLLLNNRLRPFRCRYRSSATMLEHLSSLPTQMDYKGQKLAEQMFQGIILFSAIVGFIYGYVAEQFGWTVYIVMAGFAFSCLLTLPPWPIYRRHPLKWLPVQDLGTEDKKSGDRKIKRHAKNN

Biological target: T1, Neuronatin (NNAT), endogenous in MIN6 cells (mouse (endogenous in MIN6))
Experiment: affinity purification with mass spectrometry; endogenous NNAT immunoprecipitated from MIN6 cell lysates (50 mM Tris-HCl pH 7.5, 150 mM NaCl, 1% Triton X-100, 1 mM EDTA) with rabbit polyclonal anti-NNAT and protein A-agarose, 4°C overnight; rabbit IgG as control IP; LC/MS of gel bands; proteins ranked by fold change versus control

Row | Molecule | binding
1 | Signal peptidase complex subunit 2 (SPCS2), endogenous in MIN6 cells (from UniProt Q9CYN2 1-226) | binds
2 | B1 | binds

Results are given in words; binding and its absence hold for the method and conditions named. Binding seen in cells or lysates may run through a third protein. Here binding means that the protein was enriched with, or labelled near, the bait; the list need not be complete.
